# Measured data: PubChem BioAssay AID1259308 (NCATS, 2017)
# Aim: 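Candidate targets for better recombinant protein yield in mammalian cells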 (primary screen)
# Cells: human HEK293 embryonic kidney cells stably expressing firefly luciferase (HEK-CMV-Luc2-Hygro)
# Knock-down reagent: single siRNA against human genes, 0.8 pmol siRNA per well
# Duration: 72 h
# Read-out: 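Luciferase light (ONE-Glo) measured on one replicate plate set and viability (CellTiter-Glo) on the other, scaled to a negative control siRNA, with robust z-scores and luciferase per cell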
# Reading the numbers: total luciferase, z-score and total luciferase, % of control: higher = more reporter protein produced; luciferase per cell, z-score: higher = more reporter output per viable cell; viable cells, % of control: higher = more viable cells
# Rule for the call: 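An siRNA counts as active if its total luciferase robust z-score exceeds 3; genes with two or more such siRNAs out of three were retested with fresh siRNAs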
# Meaning of the calls: active = raised luciferase; inactive = no rise
# The whole screen tested about 59,000 reagents; this is an unselected part. About 1,510 of them (2.6%) were called active. 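Calls use total luciferase alone and ignore viability, so some active siRNAs may act by altering cell number.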 A number with no mark means an inactive call. Reagents against one gene are numbered here.
gene,reagent no.,"total luciferase, z-score","total luciferase, % of control","luciferase per cell, z-score","viable cells, % of control"
FRG1-DT,1,0.872,99.2,0.628,94
FRG1-DT,2,-0.741,67.2,-0.632,88.6
FRG1-DT,3,-0.666,68.6,-1.2,105
JCAD,1,-0.318,75.6,-0.475,95.7
JCAD,2,1.61,114,0.617,108
JCAD,3,-0.357,74.8,-1.12,112
PPP1R9B,1,-0.631,69.3,-0.397,86
PPP1R9B,2,-0.682,68.3,-0.677,91.3
PPP1R9B,3,-0.0517,80.9,-0.363,99.4
L3HYPDH,1,-0.047,81,-0.168,94.5
L3HYPDH,2,0.154,84.9,0.652,79.9
L3HYPDH,3,-0.113,79.6,-0.875,112
PEX3,1,-0.0195,81.5,-0.0722,92.8
PEX3,2,0.564,93.1,0.204,98.6
PEX3,3,0.632,94.5,-0.101,108
ABHD3,1,2.12,124,2.74,67.4
ABHD3,2,-0.847,65,-0.592,84.9
ABHD3,3,-1.16,58.9,-1.81,106

Next part (3 carried over from the part before).
gene,reagent no.,"total luciferase, z-score","total luciferase, % of control","luciferase per cell, z-score","viable cells, % of control"
ABHD3,1,2.12,124,2.74,67.4
ABHD3,2,-0.847,65,-0.592,84.9
ABHD3,3,-1.16,58.9,-1.81,106
RBMXL2,1,-0.0522,80.8,0.712,74.9
RBMXL2,2,-1.11,59.8,-1.07,88.4
RBMXL2,3,1.92,120,1.26,96.3
NDUFAF2,1,-0.353,74.9,0.968,64.8
NDUFAF2,2,-0.938,63.2,-0.902,89.6
NDUFAF2,3,2.37,129,1.59,94.8
NPRL2,1,0.276,87.4,0.0205,97.1
NPRL2,2,-1.31,55.8,-1.2,85.6
NPRL2,3,2.2,126,3.76,52.2
COX11,1,-0.115,79.6,-0.0293,89.6
COX11,2,-0.0469,81,-1.07,120
COX11,3,-1,61.9,-1.23,95.8
PARD6A,1,0.108,84,-0.151,97.7
PARD6A,2,0.0379,82.6,0.266,86.1
PARD6A,3,2.13,124,1.85,85.4
ANKHD1-EIF4EBP3,1,-1.33,55.4,-1.05,81.7
ANKHD1-EIF4EBP3,2,1.69,115,1.66,83.3
ANKHD1-EIF4EBP3,3,0.297,87.8,-0.229,104
MRM1,1,0.149,84.9,-0.235,101
MRM1,2,0.188,85.6,-0.0366,96.6
MRM1,3,-0.427,73.4,-0.611,96.3
